From patent publication US20260053833A1, “COMPOSITIONS AND METHODS FOR TREATING CARDIOMYOPATHIES” (THE BOARD OF REGENTS OF THE UNIVERSITY OF TEXAS SYSTEM, priority 2022, published 2026)

Biological target: ΔK210 troponin complex (Homo sapiens, UniProt P19429+P45379, C80A/C97A/DEL220-220/T31M)
Assay: Crystal structure of ΔK210 bound with Ca^2+ in the presence of bisphosphonates
Conditions: same crystallization condition as ΔK210 with risedronate

NCCCC(O)(P(=O)(O)O)P(=O)(O)O [elandronate]
ligand density in crystal structure: no ligand density was observed
